From article PMC7411154

Amino acid sequences for entries named in this document (tags omitted).
UniProt Q9BR76: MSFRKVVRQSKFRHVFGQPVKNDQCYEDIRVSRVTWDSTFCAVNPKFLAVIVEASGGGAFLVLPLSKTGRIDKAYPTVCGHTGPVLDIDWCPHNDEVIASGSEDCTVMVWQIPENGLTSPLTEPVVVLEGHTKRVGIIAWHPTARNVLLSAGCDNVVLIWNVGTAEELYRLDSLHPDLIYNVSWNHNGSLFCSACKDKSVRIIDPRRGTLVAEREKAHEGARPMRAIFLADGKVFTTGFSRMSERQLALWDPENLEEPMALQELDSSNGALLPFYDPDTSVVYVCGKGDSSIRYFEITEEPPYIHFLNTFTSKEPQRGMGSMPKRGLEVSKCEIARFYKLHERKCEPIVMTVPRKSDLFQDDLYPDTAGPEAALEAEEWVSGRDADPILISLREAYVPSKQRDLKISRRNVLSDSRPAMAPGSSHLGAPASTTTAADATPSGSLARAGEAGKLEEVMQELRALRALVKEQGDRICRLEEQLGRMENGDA
UniProt Q13418: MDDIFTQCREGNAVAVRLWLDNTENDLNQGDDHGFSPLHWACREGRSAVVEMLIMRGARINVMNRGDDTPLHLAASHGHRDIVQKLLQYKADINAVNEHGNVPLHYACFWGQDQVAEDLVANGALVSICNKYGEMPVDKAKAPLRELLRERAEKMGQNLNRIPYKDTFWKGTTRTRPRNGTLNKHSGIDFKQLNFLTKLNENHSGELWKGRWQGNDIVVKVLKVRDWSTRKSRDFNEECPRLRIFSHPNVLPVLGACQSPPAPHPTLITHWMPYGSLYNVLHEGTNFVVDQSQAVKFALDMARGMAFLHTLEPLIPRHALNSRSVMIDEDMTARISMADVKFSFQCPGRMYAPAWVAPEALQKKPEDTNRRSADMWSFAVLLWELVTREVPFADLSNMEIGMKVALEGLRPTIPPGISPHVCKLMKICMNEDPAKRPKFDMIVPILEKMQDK
UniProt P35222: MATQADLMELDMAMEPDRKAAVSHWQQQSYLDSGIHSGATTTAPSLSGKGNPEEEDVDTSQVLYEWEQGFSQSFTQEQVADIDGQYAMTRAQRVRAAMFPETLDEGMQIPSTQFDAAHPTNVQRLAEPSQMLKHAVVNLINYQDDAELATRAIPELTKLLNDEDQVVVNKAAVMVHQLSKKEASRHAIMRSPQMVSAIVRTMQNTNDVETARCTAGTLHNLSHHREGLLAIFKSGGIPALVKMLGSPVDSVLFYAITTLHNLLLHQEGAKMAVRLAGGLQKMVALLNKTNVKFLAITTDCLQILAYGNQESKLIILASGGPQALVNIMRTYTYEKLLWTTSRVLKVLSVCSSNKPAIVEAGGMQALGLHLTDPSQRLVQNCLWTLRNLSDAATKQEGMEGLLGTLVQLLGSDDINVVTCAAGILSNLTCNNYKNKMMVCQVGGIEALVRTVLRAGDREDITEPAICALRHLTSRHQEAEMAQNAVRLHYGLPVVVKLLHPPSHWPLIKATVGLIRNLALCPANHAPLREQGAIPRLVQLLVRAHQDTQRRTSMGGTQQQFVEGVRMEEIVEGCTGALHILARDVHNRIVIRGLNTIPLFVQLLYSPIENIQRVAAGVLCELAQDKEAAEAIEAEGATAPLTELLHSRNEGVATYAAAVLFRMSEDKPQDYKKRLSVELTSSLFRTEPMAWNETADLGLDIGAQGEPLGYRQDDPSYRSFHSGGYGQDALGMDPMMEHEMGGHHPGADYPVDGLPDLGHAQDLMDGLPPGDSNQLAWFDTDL

Assays:
[1] = biological target: Coronin 1B-GFP fusion protein (UniProt Q9BR76); assay: affinity purification with mass spectrometry; GFP-Trap beads with lysates of HMECs stably expressing Coro1B-GFP or GFP (control); on-bead digestion, label-free LC-MS/MS, iBAQ; hits: log2 enrichment above 2 and p-value below 0.05 against the GFP control; n = 4
[2] = biological target: Coronin 1B-GFP fusion protein (UniProt Q9BR76); assay: as above; remark: listed apart in the source

binding [1]	binding [2]	Molecule
binds		integrin-linked kinase (ILK) (from UniProt Q13418 1-452)
no binding		β-catenin (from UniProt P35222 1-781)
	no binding	VE-cadherin (VEcad) (protein, UniProt P33151 48-784) DWIWNQMHIDEEKNTSLPHHVGKIKSSVSRKNAKYLLKGEYVGKVFRVDAETGDVFAIERLDRENISEYHLTAVIVDKDTGENLETPSSFTIKVHDVNDNWPVFTHRLFNASVPESSAVGTSVISVTAVDADDPTVGDHASVMYQILKGKEYFAIDNSGRIITITKSLDREKQARYEIVVEARDAQGLRGDSGTATVLVTLQDINDNFPFFTQTKYTFVVPEDTRVGTSVGSLFVEDPDEPQNRMTKYSILRGDYQDAFTIETNPAHNEGIIKPMKPLDYEYIQQYSFIVEATDPTIDLRYMSPPAGNRAQVIINITDVDEPPIFQQPFYHFQLKENQKKPLIGTVLAMDPDAARHSIGYSIRRTSDKGQFFRVTKKGDIYNEKELDREVYPWYNLTVEAKELDSTGTPTGKESIVQVHIEVLDENDNAPEFAKPYQPKVCENAVHGQLVLQISAIDKDITPRNVKFKFILNTENNFTLTDNHDNTANITVKYGQFDREHTKVHFLPVVISDNGMPSRTGTSTLTVAVCKCNEQGEFTFCEDMAAQVGVSIQAVVAILLCILTITVITLLIFLRRRLRKQARAHGKSVPEIHEQLVTYDEEGGGEMDTTSYDVSVLNSVRRGGAKPPRPALDARPSLYAQVQKPPRHAPGAHGGPGEMAAMIEVKKDEADHDGDGPPYDTLHIYGYEGSESIAESLSSLGTDSSDSDVDYDFLNDWGPRFKMLAELYGSDPREELLY

Read-outs that look alike come from different tables or passages of the source. These are yes or no findings as the source states them, for the method shown. Binding seen in cells or lysates may run through a third protein. Here binding means that the protein was enriched with, or labelled near, the bait; the list need not be complete. No binding means not detected with the bait.
